Measured values as given in patent US6357163B1 (priority 1991, dated 2002).

Key:
[1] = general procedure: Boc solid-phase peptide synthesis; BHA resin; MBHA resin (initial substitution 0.3 mmol/g); pentafluorophenyl esters (BocTaeg-OPfp); conditions: whole synthesis; for crude HPLC purity / final HPLC purity: analytical reverse-phase HPLC (% of total absorbance)
[2] = general procedure: Boc solid-phase peptide synthesis; MBHA resin; pentafluorophenyl esters (BocTaeg-OPfp); conditions: whole synthesis

| Substance | crude HPLC purity [1] | final HPLC purity [1] [%] | other results |
| --- | --- | --- | --- |
| Acr^1-[Taeg]10-Lys-NH2 | about 45% | >97 | – |
| Acr^1-[Taeg]15-Lys-NH2 | about 35% | – | – |
| Ac—[Taeg]10-Lys-NH2 | about 75% | >95 | – |
| H-Taeg-Aaeg-[Taeg]8-Lys-NH2 | less than 50% | – | difficulty met [2]: about 50% incorporation of A(Z)aeg |
| H—[Taeg]2-Aaeg-[Taeg]5-Lys-NH2 | – | – | difficulty met [1]: a total of about 82% incorporation of A(Z)aeg after coupling three times |
| H—[Taeg]5-Caeg-[Taeg]4-Lys-NH2 | >50% | 96 | – |
| H—[Taeg]5-Lys-NH2 | about 90% | 99 | – |
| H—[Taeg]10-Lys-NH2 | – | – | crude HPLC purity ([1]; run 1): about 50%; final HPLC purity ([1]; run 1): >95%; crude HPLC purity ([1]; run 2): about 78%; final HPLC purity ([1]; run 2): 82% |
